In PMC5928113, “Properties of the ternary complex formed by yeast eIF4E, p20 and mRNA” (Scientific Reports, 2018):
These are yes or no findings as the source states them, for the method shown. Binding seen in cells or lysates may run through a third protein. Some binding calls cover weakened binding; strength is not graded here. For part of these data: Where a sequence is shown, tags or fusion partners need not be part of it.

Assays:
[1] = target: T1, yeast p20 wild type, N-terminally His6x-tagged (S. cerevisiae) (UniProt P12962); assay: pull-down; untagged eIF4E and N-terminally His6x-tagged p20 (wild type or mutant) co-expressed in E. coli; lysate on Ni-NTA agarose 60 min at 4 °C, washed with 50 mM Tris.HCl pH 8, 500 mM NaCl, 20 mM imidazole, eluted with 250 mM imidazole
T1 sequence: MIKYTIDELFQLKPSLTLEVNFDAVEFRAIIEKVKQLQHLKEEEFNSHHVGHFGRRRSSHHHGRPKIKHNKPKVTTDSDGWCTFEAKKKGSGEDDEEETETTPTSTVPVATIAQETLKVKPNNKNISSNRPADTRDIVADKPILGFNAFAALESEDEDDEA

[2] = target: T2, yeast p20 R55-57L, H60-62L (6×) mutant, N-terminally His6x-tagged (S. cerevisiae) (UniProt P12962); assay: as above
T2 sequence: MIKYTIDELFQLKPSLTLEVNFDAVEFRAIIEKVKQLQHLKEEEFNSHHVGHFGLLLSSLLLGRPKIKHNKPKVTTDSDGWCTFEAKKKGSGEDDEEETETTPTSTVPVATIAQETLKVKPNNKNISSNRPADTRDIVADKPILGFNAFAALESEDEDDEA

[3] = target: T3, yeast p20 R55-57L (3×) mutant, N-terminally His6x-tagged (S. cerevisiae) (UniProt P12962); assay: as above
T3 sequence: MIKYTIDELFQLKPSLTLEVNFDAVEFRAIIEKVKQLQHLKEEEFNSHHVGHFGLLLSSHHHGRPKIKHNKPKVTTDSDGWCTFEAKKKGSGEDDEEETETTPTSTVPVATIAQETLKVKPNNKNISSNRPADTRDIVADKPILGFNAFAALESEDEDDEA

[4] = target: T4, yeast eIF4E, endogenous in extracts of RH2585-derived strains (S. cerevisiae (endogenous in strain RH2585 derivatives)) (UniProt P07260); assay: pull-down; 300 µg total yeast extract on m7GDP-Sepharose in buffer ADP, 1 h at 4 °C, eluted with 1 mM m7GDP; Western blot of eluates with polyclonal antibodies against eIF4E and p20
T4 sequence: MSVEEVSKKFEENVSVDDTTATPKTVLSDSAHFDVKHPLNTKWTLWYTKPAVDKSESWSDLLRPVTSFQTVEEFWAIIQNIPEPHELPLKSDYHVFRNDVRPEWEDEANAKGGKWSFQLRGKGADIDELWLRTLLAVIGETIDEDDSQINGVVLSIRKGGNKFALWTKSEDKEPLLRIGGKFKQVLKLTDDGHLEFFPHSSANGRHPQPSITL

Binder	binding [1]	binding [2]	binding [3]	binding [4]
yeast eIF4E (eukaryotic translation initiation factor 4E), untagged, co-expressed with His6x-p20 (protein, UniProt P07260 1-213) MSVEEVSKKFEENVSVDDTTATPKTVLSDSAHFDVKHPLNTKWTLWYTKPAVDKSESWSDLLRPVTSFQTVEEFWAIIQNIPEPHELPLKSDYHVFRNDVRPEWEDEANAKGGKWSFQLRGKGADIDELWLRTLLAVIGETIDEDDSQINGVVLSIRKGGNKFALWTKSEDKEPLLRIGGKFKQVLKLTDDGHLEFFPHSSANGRHPQPSITL	binds	binds	binds	
yeast p20 wild type expressed in yeast from an integrated plasmid (protein, UniProt P12962 1-161) MIKYTIDELFQLKPSLTLEVNFDAVEFRAIIEKVKQLQHLKEEEFNSHHVGHFGRRRSSHHHGRPKIKHNKPKVTTDSDGWCTFEAKKKGSGEDDEEETETTPTSTVPVATIAQETLKVKPNNKNISSNRPADTRDIVADKPILGFNAFAALESEDEDDEA				binds
yeast p20 R55-57L (3×) mutant expressed in yeast from an integrated plasmid (protein, UniProt P12962 1-161) MIKYTIDELFQLKPSLTLEVNFDAVEFRAIIEKVKQLQHLKEEEFNSHHVGHFGLLLSSHHHGRPKIKHNKPKVTTDSDGWCTFEAKKKGSGEDDEEETETTPTSTVPVATIAQETLKVKPNNKNISSNRPADTRDIVADKPILGFNAFAALESEDEDDEA				binds
yeast p20 R55-57L, H60-62L (6×) mutant expressed in yeast from an integrated plasmid (protein, UniProt P12962 1-161) MIKYTIDELFQLKPSLTLEVNFDAVEFRAIIEKVKQLQHLKEEEFNSHHVGHFGLLLSSLLLGRPKIKHNKPKVTTDSDGWCTFEAKKKGSGEDDEEETETTPTSTVPVATIAQETLKVKPNNKNISSNRPADTRDIVADKPILGFNAFAALESEDEDDEA				binds
